Test results from patent US20230293647A1.
These are yes or no findings as the source states them, for the method shown. Some entries that bind do so weakly or less than the wild type.

Target: SARS-CoV-2 Spike protein, S1 subunit (recombinant) (SARS-CoV-2) (UniProt P0DTC2)
Assay: screening ELISA of dAb supernatants, anti-c-Myc HRP, n3

B1: Clone 9 (VHH)
VHH: QVQLQESGGGLVQAGDSLRLSCAASGRTSDTMTIGWFRQAPGKEREFVASINWSGSTTYYADSVNERFTISRDDAKNTVYLQMNSLKPEDTAVYYCAAKRGVWTIKSAAADFASWGQGTQVTVSS
B1 was tested, and the binding was “binds”.
